Reference: publication PMC7862700
This is a selection; strong and weak results do not stand in their true shares. For some of these results: At the low end of the ranking the order means little. The list shows a part of the results. For some of these results: The exact form of the protein is not confirmed.

Amino acid sequences for entries named in this document (tags omitted). A change or cut given only in a name is not applied to a line headed by its entry.
UniProt P50549: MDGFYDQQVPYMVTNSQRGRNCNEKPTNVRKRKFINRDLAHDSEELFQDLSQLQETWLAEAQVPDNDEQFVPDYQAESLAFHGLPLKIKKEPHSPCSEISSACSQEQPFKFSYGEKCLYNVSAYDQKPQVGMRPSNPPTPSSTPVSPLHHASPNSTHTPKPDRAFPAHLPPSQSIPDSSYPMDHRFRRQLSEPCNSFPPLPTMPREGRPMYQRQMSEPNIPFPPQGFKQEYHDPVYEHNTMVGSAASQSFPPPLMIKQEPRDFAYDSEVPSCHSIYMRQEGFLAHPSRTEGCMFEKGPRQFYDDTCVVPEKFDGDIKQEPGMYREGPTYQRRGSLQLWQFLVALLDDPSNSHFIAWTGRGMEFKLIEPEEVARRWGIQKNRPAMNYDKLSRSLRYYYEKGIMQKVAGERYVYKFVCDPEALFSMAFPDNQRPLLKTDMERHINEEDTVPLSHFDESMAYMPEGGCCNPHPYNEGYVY
UniProt P32519: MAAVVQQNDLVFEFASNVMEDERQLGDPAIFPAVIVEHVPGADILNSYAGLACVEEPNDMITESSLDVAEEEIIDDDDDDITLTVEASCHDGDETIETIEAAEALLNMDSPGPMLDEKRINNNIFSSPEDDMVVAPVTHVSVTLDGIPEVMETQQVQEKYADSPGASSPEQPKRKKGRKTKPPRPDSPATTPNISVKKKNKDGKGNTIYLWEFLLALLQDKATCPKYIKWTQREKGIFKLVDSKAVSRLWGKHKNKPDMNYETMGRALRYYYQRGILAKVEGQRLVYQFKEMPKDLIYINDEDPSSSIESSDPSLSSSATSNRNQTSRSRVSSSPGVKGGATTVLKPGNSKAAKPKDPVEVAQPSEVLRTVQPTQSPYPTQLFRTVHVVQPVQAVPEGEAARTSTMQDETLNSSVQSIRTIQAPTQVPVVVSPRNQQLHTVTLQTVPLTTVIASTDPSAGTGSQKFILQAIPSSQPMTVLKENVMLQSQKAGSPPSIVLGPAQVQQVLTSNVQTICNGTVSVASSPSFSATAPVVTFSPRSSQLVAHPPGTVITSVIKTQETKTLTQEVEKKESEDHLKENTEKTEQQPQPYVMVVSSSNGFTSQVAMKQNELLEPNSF

Key:
Assay in all cases: DAPPL (digital affinity profiling via proximity ligation, sequencing)
Settings in all cases: 10 mM Tris-HCl pH 7.5, 50 mM NaCl, 1 mM DTT, 4% glycerol, room temperature, 30 min; GST-TFs on glutathione beads, 16-mer random dsDNA library, 0.1% …; high values mean tight binding; double strand, one strand shown; scale: fold enrichment (6-mer frequency, TF over GST control)
[1] = target: T1, ETV4 (UniProt P43268)
T1 sequence: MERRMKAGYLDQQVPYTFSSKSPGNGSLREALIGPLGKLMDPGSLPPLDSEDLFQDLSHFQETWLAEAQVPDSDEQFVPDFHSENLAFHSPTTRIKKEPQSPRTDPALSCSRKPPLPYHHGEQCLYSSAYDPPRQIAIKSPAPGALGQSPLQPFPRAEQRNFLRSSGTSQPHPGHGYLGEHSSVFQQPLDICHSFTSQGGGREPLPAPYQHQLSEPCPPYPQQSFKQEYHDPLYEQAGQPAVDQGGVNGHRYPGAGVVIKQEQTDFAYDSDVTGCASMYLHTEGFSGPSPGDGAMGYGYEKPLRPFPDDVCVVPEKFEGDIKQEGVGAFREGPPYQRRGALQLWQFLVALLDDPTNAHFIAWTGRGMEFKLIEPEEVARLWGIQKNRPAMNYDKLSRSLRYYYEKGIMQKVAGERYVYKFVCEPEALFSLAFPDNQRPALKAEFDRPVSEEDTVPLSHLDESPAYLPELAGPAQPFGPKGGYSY

[2] = target: ETV1 (UniProt P50549)
[3] = target: T2, ERG (UniProt P11308)
T2 sequence: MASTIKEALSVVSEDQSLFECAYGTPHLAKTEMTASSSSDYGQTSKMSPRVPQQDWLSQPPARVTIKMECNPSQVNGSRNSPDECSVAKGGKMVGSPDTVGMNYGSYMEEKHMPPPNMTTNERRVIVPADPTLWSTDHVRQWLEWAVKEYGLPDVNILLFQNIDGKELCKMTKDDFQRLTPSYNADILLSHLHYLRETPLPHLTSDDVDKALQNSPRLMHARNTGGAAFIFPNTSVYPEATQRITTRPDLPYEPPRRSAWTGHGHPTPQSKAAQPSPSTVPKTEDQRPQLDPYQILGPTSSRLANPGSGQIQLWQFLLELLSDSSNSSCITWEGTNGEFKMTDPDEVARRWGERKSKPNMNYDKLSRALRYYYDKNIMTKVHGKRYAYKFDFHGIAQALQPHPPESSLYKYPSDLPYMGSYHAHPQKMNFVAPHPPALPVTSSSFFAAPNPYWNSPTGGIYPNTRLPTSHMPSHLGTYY

[4] = target: ELF1 (UniProt P32519)

| Sequence | binding signal [1] | binding signal [2] | binding signal [3] | binding signal [4] |
| --- | --- | --- | --- | --- |
| ACGTCC | 1.59 | 1.63 | – | – |
| CCCAAC | 1.22 | 1.13 | – | – |
| TGACCG | 1.46 | 1.56 | – | – |
| TCAATC | 1.05 | 1.04 | – | – |
| AACCTA | 1.14 | 1.1 | – | – |
| CCCCCC | 1.15 | – | 1.07 | 1.08 |
| CATAAC | 1.19 | 1.1 | – | – |
| CACTGT | 1.21 | 1.11 | – | – |
| TCCCCG | 1.16 | 1.13 | – | – |
| GTGTTC | 1.07 | 1.14 | – | – |
| CGCCGC | 1.15 | 1.29 | – | – |
| TCACGG | 1 | – | 1.02 | 1.06 |
| CCAAAT | 1.09 | 0.992 | – | – |
| GGACAT | 1.23 | 1.23 | – | – |
| ATCGCT | 0.983 | 1.08 | – | – |
| AAAGTA | 1.12 | 1.18 | – | – |
| CTCGCT | 1.76 | 1.71 | – | – |
| GCTCCC | 1.47 | 1.24 | – | – |
| CGTTTT | 1.21 | 1.17 | – | – |
| TGCCAT | 1.08 | 1.17 | – | – |
| CTCGGT | 1.15 | 1.15 | – | – |
| AATGGT | 1.37 | 1.43 | – | – |
| AGCAAC | 1.02 | 0.99 | – | – |

| Sequence | binding signal [1] | binding signal [2] | binding signal [3] | binding signal [4] |
| --- | --- | --- | --- | --- |
| TCCGGG | 1.41 | 1.59 | – | – |
| TCCCAG | 1.09 | 0.982 | – | – |
| TTCGCT | 1.26 | 1.27 | – | – |
| CCATCT | 1.27 | 1.34 | – | – |
| TACCGG | 1.64 | – | 1.77 | 1.53 |
| TGCTCC | 1.48 | 1.31 | – | – |
| GCTATG | 1.26 | 1.17 | – | – |
| AATCCA | 1.06 | 1.12 | – | – |
| ACCATC | 1.1 | 1.03 | – | – |
| TGGTAA | 1.23 | 1.27 | – | – |
| AAATCT | 1.22 | 1.35 | – | – |
| GCCCAA | 1.12 | 0.982 | – | – |
| AGTCTC | 1.01 | 0.935 | – | – |
| CACCGC | 1.08 | 1 | – | – |
| TTCCGC | 2.94 | 3.17 | – | – |
| AACTCT | 1.45 | 1.36 | – | – |
| ATTTTC | 1.37 | 1.4 | – | – |
| TGGCTG | 1.02 | 0.947 | – | – |
| CAGCTA | 1.05 | 0.967 | – | – |
| AGCTCA | 1.1 | 1.24 | – | – |
| CCGACT | 1.52 | 1.6 | – | – |
| CTTCTT | 1.5 | 1.48 | – | – |
| CCTAAG | 1.13 | 1.09 | – | – |

| Sequence | binding signal [1] | binding signal [2] | binding signal [3] | binding signal [4] |
| --- | --- | --- | --- | --- |
| TTACGG | 1.17 | 1.25 | – | – |
| CTACGC | 1.55 | 1.55 | – | – |
| AACATT | 1.23 | 1.29 | – | – |
| CTTAGT | 1.23 | 1.17 | – | – |
| TGGCAT | 1.13 | 1.18 | – | – |
| GTTACA | 1.15 | 1.11 | – | – |
| TTCACG | 1.33 | 1.32 | – | – |
| CGTTAT | 1.18 | 0.987 | – | – |
| TTACTA | 1.3 | 1.23 | – | – |
| GCCCTA | 1.15 | 1.06 | – | – |
| TAGCAT | 1.07 | 1.17 | – | – |
| TTCGTC | 1.26 | 1.26 | – | – |
| ACTCAA | 1.15 | 1.15 | – | – |
| GACTTT | 1.17 | 1.24 | – | – |
| ATTGTT | 1.47 | 1.47 | – | – |
| GAAAAT | 1.05 | 1.02 | – | – |
| ACTAAT | 1.31 | 1.3 | – | – |
| TTGGGG | 1.25 | 1.38 | – | – |
| AAAATA | 1.14 | 1.1 | – | – |
| AAAGCA | 1.05 | 1.06 | – | – |
| TTTTTT | 1.11 | 1.36 | – | – |
| CTCTCT | 1.64 | 1.49 | – | – |
| AAAGTT | 1.1 | 1.07 | – | – |

| Sequence | binding signal [1] | binding signal [2] | binding signal [3] | binding signal [4] |
| --- | --- | --- | --- | --- |
| TGGCAC | 1.2 | 1.11 | – | – |
| CTTTGC | 1.43 | 1.35 | – | – |
| AGTTAA | 1.05 | 0.988 | – | – |
| ACCTCC | 1.54 | 1.4 | – | – |
| TGCGCA | 1.11 | 1.07 | – | – |
| TTTCCG | 3.55 | 3.76 | – | – |
| TTTGAC | 1.43 | 1.42 | – | – |
| GTTCGA | 1.12 | 1.08 | – | – |
| ATCCTA | 1.35 | 1.32 | – | – |
| TTCTGG | 1.25 | 1.21 | – | – |
| AAATAC | 1.36 | 1.39 | – | – |
| GGTCTC | 2.54 | 2.58 | – | – |
| ACCCAA | 1.04 | 0.946 | – | – |
| CCTAAT | 1.32 | 1.38 | – | – |
| GATGCG | 1.07 | 1.06 | – | – |
| AAGAAC | 1.18 | 1.22 | – | – |
| AAACAC | 1.3 | 1.26 | – | – |
| GTCCTC | 1.28 | 1.25 | – | – |
| CGATAG | 1.11 | 1.16 | – | – |
| TCCCGT | 1.34 | 1.3 | – | – |
| TGTCCG | 1.46 | 1.6 | – | – |
| CCCTTC | 1.42 | 1.51 | – | – |
| TAACAG | 1.05 | 1.09 | – | – |

| Sequence | binding signal [1] | binding signal [2] | binding signal [3] | binding signal [4] |
| --- | --- | --- | --- | --- |
| AGCATT | 1.11 | 1.13 | – | – |
| AACTTT | 1.23 | 1.23 | – | – |
| TATGTC | 1.1 | 1.05 | – | – |
| CAAATC | 1.16 | 1.15 | – | – |
| GCCGCT | 1.08 | 1.15 | – | – |
| AGTTTC | 1.18 | 1.29 | – | – |
| TAACCA | 1.13 | 1.02 | – | – |
| AATTTT | 1.27 | 1.23 | – | – |
| CAAACA | 1.09 | 1.09 | – | – |
| CACACG | 1.11 | 1.16 | – | – |
| GGTGTT | 1.08 | 1.04 | – | – |
| CAACTT | 1.61 | 1.54 | – | – |
| GGCCCT | 1.01 | 0.973 | – | – |
| AATAGT | 1.18 | 1.17 | – | – |
| TATTTT | 1.26 | 1.48 | – | – |
| ATGCCA | 1.03 | 1.02 | – | – |
| ACTCGT | 1.19 | 1.13 | – | – |
| ATAGTT | 1.24 | 1.11 | – | – |
| CGCTGG | 1.08 | 0.94 | – | – |
| TGCATA | 1.16 | 1.07 | – | – |
| CATGGT | 1.21 | 1.29 | – | – |
